PubChem BioAssay AID1508587 | Peter MacCallum Cancer Centre | 2020
Shown is an unselected part of about 1,600 reagents tested. 623 of all reagents (39%) were called active. 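Calls are for each duplex; lactate ratios contain extreme outliers.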 Unmarked entries are inactive. The numbers tell different reagents against one gene apart. Reagent sequences are not shown.

- Aim: 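Follow-up of vemurafenib sensitisers scored by lactate made per cell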 (follow-up of hits)
- Cell system: human WM266.4 melanoma cells with a BRAF V600 mutation
- Knock-down reagent: single siRNA against human genes, 25 nM
- Duration: 96 h
- Conditions: vemurafenib 300 nM (about IC25), given 48 h after transfection for 48 h
- Detection: 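Per-cell lactate from absorbance divided by DAPI nucleus counts, compared with and without vemurafenib, relative to non-targeting siRNA, mean of 2 replicates; nuclear counts also give cell number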
- Reading the numbers: lactate per cell, drug vs no drug: higher = less drug-induced drop in lactate per cell; lactate per cell with vemurafenib: higher = more lactate per cell under drug; lactate per cell without drug: higher = more lactate per cell without drug; cell growth with vemurafenib and cell growth without drug: higher = more cell growth over 48 h
- Active means: 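Enhancer call for any duplex whose drug versus no-drug per-cell lactate ratio is below 0.55 (2 SD beneath non-targeting average); genes confirmed when at least 2 of their 4 duplexes qualify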

Target gene | reagent | lactate per cell, drug vs no drug | lactate per cell with vemurafenib | lactate per cell without drug | cell growth with vemurafenib | cell growth without drug
TRAPPC9 (trafficking protein particle complex subunit 9) | 1 | 0.1 (active) | 0.06 | 0.37 | 0.01 | 0.04
TRAPPC9 (trafficking protein particle complex subunit 9) | 2 | 0.64 | 1.4 | 1.53 | 0.42 | 0.32
TRAPPC9 (trafficking protein particle complex subunit 9) | 3 | 0.64 | 1.5 | 1.58 | 0.8 | 0.33
TRAPPC9 (trafficking protein particle complex subunit 9) | 4 | -0.14 (active) | -0.08 | 0.41 | 0.35 | 0.5
ODR4 (odr-4 GPCR localization factor homolog) | 1 | 0.57 | 1.17 | 1.25 | 0.22 | 0.21
ODR4 (odr-4 GPCR localization factor homolog) | 2 | 0.61 | 1.17 | 1.16 | 0.05 | 0.17
ODR4 (odr-4 GPCR localization factor homolog) | 3 | 0.48 (active) | 1.19 | 1.54 | 0.08 | 0.12
ODR4 (odr-4 GPCR localization factor homolog) | 4 | 0.41 (active) | 0.9 | 1.35 | 0.8 | 0.5
ATP6AP1L (ATPase H+ transporting accessory protein 1 like (pseudogene)) | 1 | 0.62 | 2.84 | 3.15 | 0.04 | -0.08
ATP6AP1L (ATPase H+ transporting accessory protein 1 like (pseudogene)) | 2 | 0.66 | 0.99 | 1.01 | 0.83 | 0.83
ATP6AP1L (ATPase H+ transporting accessory protein 1 like (pseudogene)) | 3 | 0.66 | 0.82 | 0.84 | 0 | 0.16
ATP6AP1L (ATPase H+ transporting accessory protein 1 like (pseudogene)) | 4 | 0.78 | 1.25 | 1.07 | 0.32 | 0.37
CEP120 (centrosomal protein 120) | 1 | 0.34 (active) | 0.43 | 0.88 | 0.07 | 0.16
CEP120 (centrosomal protein 120) | 2 | 0.44 (active) | 1.78 | 2.75 | 0.2 | 0.04
CEP120 (centrosomal protein 120) | 3 | 0.54 (active) | 0.7 | 0.91 | 0.27 | 0.53
CEP120 (centrosomal protein 120) | 4 | 0.54 (active) | 0.87 | 1.11 | 0.24 | 0.52
TCP11 (t-complex 11) | 1 | 0.62 | 0.86 | 0.94 | 0.18 | 0.4
TCP11 (t-complex 11) | 2 | 0.56 | 1.15 | 1.34 | -0.03 | 0.25
TCP11 (t-complex 11) | 3 | 0.6 | 1.55 | 1.7 | 0.03 | 0.21
TCP11 (t-complex 11) | 4 | 0.66 | 0.97 | 1.04 | -0.18 | 0.06
THUMPD3 (THUMP domain 3 tRNA guanosine methyltransferase) | 1 | 0.57 | 0.82 | 0.98 | 0.86 | 1.07
THUMPD3 (THUMP domain 3 tRNA guanosine methyltransferase) | 2 | 0.56 | 0.68 | 0.82 | 0.59 | 0.9
THUMPD3 (THUMP domain 3 tRNA guanosine methyltransferase) | 3 | 0.45 (active) | 0.45 | 0.68 | 0.05 | 0.54
THUMPD3 (THUMP domain 3 tRNA guanosine methyltransferase) | 4 | 0.35 (active) | 0.46 | 0.92 | 0.29 | 0.32
AIF1L (allograft inflammatory factor 1 like) | 1 | 0.79 | 2.71 | 2.37 | -0.01 | -0.01
AIF1L (allograft inflammatory factor 1 like) | 2 | 0.65 | 3.62 | 3.76 | 0.13 | 0.01
AIF1L (allograft inflammatory factor 1 like) | 3 | 0.52 (active) | 1.27 | 1.68 | 0.23 | 0.13
AIF1L (allograft inflammatory factor 1 like) | 4 | 0.64 | 0.96 | 1.03 | 0.83 | 0.64
OR8U9 (olfactory receptor family 8 subfamily U member 9) | 1 | 0.6 | 0.91 | 1.04 | 0.6 | 0.88
OR8U9 (olfactory receptor family 8 subfamily U member 9) | 2 | 0.65 | 1.62 | 1.68 | -0.04 | 0.06
OR8U9 (olfactory receptor family 8 subfamily U member 9) | 3 | 0.53 (active) | 0.46 | 0.58 | 0.95 | 1.11
OR8U9 (olfactory receptor family 8 subfamily U member 9) | 4 | 1 | 1.24 | 0.98 | -0.09 | -0.07
VASP (vasodilator stimulated phosphoprotein) | 1 | 0.5 (active) | 0.62 | 0.84 | 0.07 | 0.25
VASP (vasodilator stimulated phosphoprotein) | 2 | 0.34 (active) | 1.23 | 2.58 | 0.06 | 0.04
VASP (vasodilator stimulated phosphoprotein) | 3 | 0.62 | 1.42 | 1.62 | 0.25 | 0.25
VASP (vasodilator stimulated phosphoprotein) | 4 | 0.9 | 1.52 | 1.15 | 0.86 | 0.97
PFDN6 (prefoldin subunit 6) | 1 | 0.94 | 3.88 | 2.86 | -0.05 | 0.1
PFDN6 (prefoldin subunit 6) | 2 | 0.7 | 0.8 | 0.78 | 0.94 | 1.37
PFDN6 (prefoldin subunit 6) | 3 | 0.17 (active) | 0.28 | 1.25 | 0.05 | 0.02
PFDN6 (prefoldin subunit 6) | 4 | 0.92 | 3 | 2.24 | 0.33 | 0.4
CHI3L1 (chitinase 3 like 1) | 1 | 0.84 | 1.69 | 1.34 | 0.34 | 0.58
CHI3L1 (chitinase 3 like 1) | 2 | 0.46 (active) | 1.28 | 1.8 | 0.45 | 0.31
CHI3L1 (chitinase 3 like 1) | 3 | 0.62 | 2 | 2.12 | 0.36 | 0.24
CHI3L1 (chitinase 3 like 1) | 4 | 0.32 (active) | 0.34 | 0.7 | 0.25 | 0.59
CCDC3 (coiled-coil domain containing 3) | 1 | 0.64 | 1.37 | 1.54 | 0.4 | 0.18
CCDC3 (coiled-coil domain containing 3) | 2 | 0.75 | 1 | 0.9 | 0.2 | 0.41
CCDC3 (coiled-coil domain containing 3) | 3 | 0.77 | 1.13 | 1.01 | 0.46 | 0.6
CCDC3 (coiled-coil domain containing 3) | 4 | 0.64 | 1.63 | 1.73 | 0.7 | 0.29
DHRS11 (dehydrogenase/reductase 11) | 1 | 0.64 | 1.14 | 1.03 | 0.52 | 0.86
DHRS11 (dehydrogenase/reductase 11) | 2 | 0.78 | 2.12 | 1.58 | 0.11 | 0.33
DHRS11 (dehydrogenase/reductase 11) | 3 | 0.78 | 1.16 | 0.88 | 0.56 | 0.9
DHRS11 (dehydrogenase/reductase 11) | 4 | 0.56 | 0.86 | 0.92 | 0.32 | 0.52
DPYSL2 (dihydropyrimidinase like 2) | 1 | 1.12 | 3.46 | 2.04 | -0.09 | 0.05
DPYSL2 (dihydropyrimidinase like 2) | 2 | 0.11 (active) | 0.11 | 0.68 | 0.21 | 0.29
DPYSL2 (dihydropyrimidinase like 2) | 3 | 0.52 (active) | 0.63 | 0.79 | 0.47 | 0.73
DPYSL2 (dihydropyrimidinase like 2) | 4 | 0.59 | 1.26 | 1.38 | 0.51 | 0.4
ARPC2 (actin related protein 2/3 complex subunit 2) | 1 | 0.52 (active) | 0.96 | 1.25 | 0.16 | 0.21
ARPC2 (actin related protein 2/3 complex subunit 2) | 2 | 0.73 | 1.34 | 1.25 | 0.27 | 0.41
ARPC2 (actin related protein 2/3 complex subunit 2) | 3 | 0.65 | 4.21 | 4.38 | 0.06 | -0.05
ARPC2 (actin related protein 2/3 complex subunit 2) | 4 | 0.4 (active) | 0.6 | 1.04 | 0.15 | 0.33
KLK14 (kallikrein related peptidase 14) | 1 | 0.4 (active) | 1.25 | 1.83 | 0.14 | 0.12
KLK14 (kallikrein related peptidase 14) | 2 | 0.39 (active) | 0.46 | 0.7 | 1.11 | 1.64
KLK14 (kallikrein related peptidase 14) | 3 | 0.6 | 1.47 | 1.44 | 0.57 | 0.49
KLK14 (kallikrein related peptidase 14) | 4 | 0.44 (active) | 1.33 | 1.75 | 0.33 | 0.22
